According to US20140242068A1 (EMORY UNIVERSITY, published 2014):
No constants are given. Whether binding was seen depends on the method and setting. A result given as binding can be weak or reduced; the word gives no strength.

Key:
[1] = target: soluble full length JAML.D1D2-His (sJAML-His) (human); assay: ELISA on coated JAML fragments
[2] = target: full length JAML tagged at the C-terminus with 10 His, on CHO cells (CHO-JAML-His) (human); assay: flow cytometry on CHO-JAML-His cells
[3] = target: full length JAML tagged at the C-terminus with 6xMyc, on CHO cells (CHO JAML-6xMyc) (human); assay: flow cytometry on CHO JAML-6xMyc cells
[4] = target: soluble full length JAML.D1D2-His (sJAML-His) (human); assay: ELISA, antigen coated at 5 µg/ml, antibody 10 µg/ml
[5] = target: full length JAML tagged at the C-terminus with 10 His, on CHO cells (CHO-JAML-His) (human); assay: immunoprecipitation from biotinylated cell lysates, streptavidin blot

binding [1] | binding [2] | binding [3] | binding [4] | binding [5] | Binder
binds | binds | binds | binds | binds | DW216 (antibody, IgG1, V domains shown, also called DW216 mAb; H3L3) VH: DVQLVESGPGLVKPSQSLSLTCTVTGYSITSDYAWNWIRQFPGNKLEWMGYISSSGNSNYNPSLKSRISITRDTSKNQFFLQLNSVTTEDTATYYCAGATGYSMDYWGQGTTLTVK VL: VLTQSPAIMSASLGERVTMTCTASSSVSSSYLHWYQQKPGSSPKLWIYSTSNLASGVPARFSGSGSGTSYSLTISSMEAEDAATYYCHQYHRSPFTFGSGTKLELK
binds | binds | binds | binds |  | DW100 (antibody, IgG1, V domains shown, also called DW100 mAb; anti-JAML monoclonal antibody DW100) VH: DVQLVESGAELVRPGASVKLSCKALAYTFTDYEMHWVKQTPVHGLEWIGIIHPGSGGTVYNQKFKGKATLTADKSSSTAYMELSSLTSEDSTVYYCTRRRYYGSSYWYFDVWGAGN VL: VLTQSPASLAASVGETVTITCRASENIYYSLAWYQQKQGKSPQLLIYNANSLEDGVPSRFSGSGSGTQYSLKINSMQPEDTATYFCEQTYDVPLTFGAGTKLEL
